Record: PubChem BioAssay AID504791 (Drosophila RNAi Screening Center, 2011)
Aim: 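Genes whose knock-down strengthens or weakens small-RNA reporter silencing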 (primary screen). Cell system: Drosophila S2-derived reporter cells. Reagents: long dsRNA against Drosophila genes, about 150-250 ng dsRNA per well (siRNA assay); about 80-120 ng (miRNA assay). Time to read-out: about 5 days (siRNA assay); about 4 days (miRNA assay). Challenge: copper sulfate induction of reporters: 25 µM (siRNA assay); 200 mM stated (miRNA assay), 1-2 days before reading. Measurement: 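Dual luciferase assay: Renilla to firefly signal ratio in each well, scaled to the mean ratio of its plate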. Direction: siRNA reporter hit score: higher = 3 marks a strong hit with raised ratio; -3 a strong hit with lowered ratio. Units: stable assay Renilla, run 1 in luminescence; stable assay firefly, run 1 in luminescence. Hit rule: 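a well was a first-pass pick when its plate-scaled ratio rose above 1.5 (siRNA assay) or 1.6 (miRNA assay), or dropped below 0.6; a gene counted only if two separate dsRNAs agreed on retest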.
In all, the deposit lists about 23,000 reagents; shown is a random part of those that have a named target and a result. Over the whole deposit, 199 (0.86%) got an active call. 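Plate-scaled ratios behind the calls are not deposited; printed light signals are raw; many rows marked increased or decreased are still called inactive.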 Entries without a mark were called inactive. The numbers tell different reagents against one gene apart.

Against CG3640, the values are stable assay Renilla, run 1 = 7451; stable assay firefly, run 1 = 5.58e5.
After knock-down of Pbp45 (PSEA-binding protein 45kD), the screen gave stable assay Renilla, run 1 = 7632; stable assay firefly, run 1 = 5.44e5.
Knock-down of f (forked) #1 gave: siRNA reporter hit score 3; stable assay Renilla, run 1 = 5738; stable assay firefly, run 1 = 4.29e5.
Against f (forked) #2 the deposit lists stable assay Renilla, run 1 = 6378; stable assay firefly, run 1 = 3.81e5.
With knock-down of f (forked) #3 the results were stable assay Renilla, run 1 = 5275; stable assay firefly, run 1 = 4.05e5.
For CG31294 the deposit lists stable assay Renilla, run 1 = 8639; stable assay firefly, run 1 = 6.18e5.
Knock-down of Acbp3 (Acyl-CoA binding protein 3) came out at: stable assay Renilla, run 1 = 5868; stable assay firefly, run 1 = 4.36e5.
MESK2 (Misexpression suppressor of KSR 2) scored stable assay Renilla, run 1 = 9263; stable assay firefly, run 1 = 3.82e5.
CG8617 showed stable assay Renilla, run 1 = 6052; stable assay firefly, run 1 = 3.52e5.
For elm (ethanol sensitive with low memory), the values are stable assay Renilla, run 1 = 8611; stable assay firefly, run 1 = 4.39e5.
Against CG5966, the entry reads stable assay Renilla, run 1 = 7346; stable assay firefly, run 1 = 4.10e5.
For CG17549, the values are stable assay Renilla, run 1 = 42368; stable assay firefly, run 1 = 1.21e6.
With knock-down of CG32121, the record shows stable assay Renilla, run 1 = 4971; stable assay firefly, run 1 = 2.81e5.
SNCF (SoxNeuro Co-Factor) showed stable assay Renilla, run 1 = 4575; stable assay firefly, run 1 = 3.01e5.
CG31900 (retired record) showed stable assay Renilla, run 1 = 4295; stable assay firefly, run 1 = 5.36e5.
After knock-down of CG34266, the screen gave stable assay Renilla, run 1 = 5890; stable assay firefly, run 1 = 4.25e5.
After knock-down of CG44014, the screen gave stable assay Renilla, run 1 = 6966; stable assay firefly, run 1 = 5.06e5.
With knock-down of Karybeta3 (Karyopherin beta 3) the results were stable assay Renilla, run 1 = 11518; stable assay firefly, run 1 = 4.00e5.
With knock-down of mRpL10 (mitochondrial ribosomal protein L10), the screen gave stable assay Renilla, run 1 = 11641; stable assay firefly, run 1 = 5.02e5.
Silencing of Ilp6 (Insulin-like peptide 6) gave: stable assay Renilla, run 1 = 6283; stable assay firefly, run 1 = 3.86e5.
Depletion of sala (spalt-adjacent) gave: stable assay Renilla, run 1 = 6508; stable assay firefly, run 1 = 3.45e5.
Against CG12662, the entry reads stable assay Renilla, run 1 = 6459; stable assay firefly, run 1 = 3.55e5.
Knock-down of CG18081 resulted in: stable assay Renilla, run 1 = 7862; stable assay firefly, run 1 = 3.49e5.
Knock-down of CG44098 #1 came out at: stable assay Renilla, run 1 = 4932; stable assay firefly, run 1 = 4.04e5.
Depletion of CG44098 #2 gave: stable assay Renilla, run 1 = 6978; stable assay firefly, run 1 = 3.54e5.
Knock-down of Ino80 (INO80 complex subunit) #1 gave: stable assay Renilla, run 1 = 7230; stable assay firefly, run 1 = 4.76e5.
After knock-down of Ino80 (INO80 complex subunit) #2, the record shows stable assay Renilla, run 1 = 9719; stable assay firefly, run 1 = 4.88e5.
Knock-down of Ino80 (INO80 complex subunit) #3 came out at: stable assay Renilla, run 1 = 7623; stable assay firefly, run 1 = 4.12e5.
Depletion of Dis3l2 (Dis3 like 3'-5' exoribonuclease 2) came out at: stable assay Renilla, run 1 = 10311; stable assay firefly, run 1 = 4.63e5.
After knock-down of mago (mago nashi), the record shows stable assay Renilla, run 1 = 11686; stable assay firefly, run 1 = 6.42e5.
For Ost48 (Oligosaccharyltransferase 48kD subunit) the deposit lists stable assay Renilla, run 1 = 7031; stable assay firefly, run 1 = 5.02e5.
Silencing of VAChT (Vesicular acetylcholine transporter) #1 resulted in: stable assay Renilla, run 1 = 4822; stable assay firefly, run 1 = 4.44e5.
For VAChT (Vesicular acetylcholine transporter) #2 the deposit lists stable assay Renilla, run 1 = 7854; stable assay firefly, run 1 = 3.53e5.
CG32163 gave stable assay Renilla, run 1 = 6239; stable assay firefly, run 1 = 4.27e5.
SNRPG (Small nuclear ribonucleoprotein G) scored stable siRNA reporter change reporter ratio raised past the hit cutoff; stable assay Renilla, run 1 = 8183; stable assay firefly, run 1 = 3.85e5.
